Results are given in words; binding and its absence hold for the method and conditions named. Binding seen in cells or lysates may run through a third protein. Some results given as binding are weak or reduced against the parent protein; the word gives no strength. For some of these results: Sequences can lack the tags named with a protein.

Chains of the proteins cited; added tags and fusions are not shown. Lines headed by an entry give the natural chain unless they say otherwise; changes in a name come on top. A line that says so, or that is headed by a name, gives the form on record, which may keep a tag or linker.
HaloTag-N58-PKM1-FLAG (P14618-2, form named): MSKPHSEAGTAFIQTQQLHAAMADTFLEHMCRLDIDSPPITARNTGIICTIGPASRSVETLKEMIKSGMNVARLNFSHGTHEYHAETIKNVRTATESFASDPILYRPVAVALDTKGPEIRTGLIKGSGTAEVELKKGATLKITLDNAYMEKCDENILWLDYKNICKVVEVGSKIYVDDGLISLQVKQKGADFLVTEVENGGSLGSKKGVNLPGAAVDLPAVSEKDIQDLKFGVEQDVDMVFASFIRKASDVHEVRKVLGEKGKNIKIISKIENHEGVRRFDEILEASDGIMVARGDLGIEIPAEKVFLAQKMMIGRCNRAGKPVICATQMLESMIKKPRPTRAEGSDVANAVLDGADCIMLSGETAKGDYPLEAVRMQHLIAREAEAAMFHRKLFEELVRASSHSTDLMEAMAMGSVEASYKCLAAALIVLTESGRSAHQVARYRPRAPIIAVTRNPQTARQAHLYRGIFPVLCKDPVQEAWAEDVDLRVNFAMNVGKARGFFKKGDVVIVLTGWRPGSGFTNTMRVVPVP
Endogenous PKM1 (mouse dorsal root ganglia) (P52480-2, form named): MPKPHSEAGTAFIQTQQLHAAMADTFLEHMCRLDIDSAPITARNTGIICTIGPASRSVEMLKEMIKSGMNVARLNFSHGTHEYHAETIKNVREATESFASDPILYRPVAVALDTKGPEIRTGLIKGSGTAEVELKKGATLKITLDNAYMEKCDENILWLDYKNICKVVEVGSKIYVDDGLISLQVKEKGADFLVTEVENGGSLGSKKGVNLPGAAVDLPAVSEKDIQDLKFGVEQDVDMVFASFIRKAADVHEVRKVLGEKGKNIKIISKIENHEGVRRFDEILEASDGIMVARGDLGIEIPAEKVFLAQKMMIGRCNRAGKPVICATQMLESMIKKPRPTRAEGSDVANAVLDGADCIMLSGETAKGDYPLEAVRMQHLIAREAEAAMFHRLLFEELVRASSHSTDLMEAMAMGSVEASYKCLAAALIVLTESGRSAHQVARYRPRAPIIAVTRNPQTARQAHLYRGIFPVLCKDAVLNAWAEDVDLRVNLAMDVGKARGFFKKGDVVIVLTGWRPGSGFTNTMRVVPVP
UniProt P05412: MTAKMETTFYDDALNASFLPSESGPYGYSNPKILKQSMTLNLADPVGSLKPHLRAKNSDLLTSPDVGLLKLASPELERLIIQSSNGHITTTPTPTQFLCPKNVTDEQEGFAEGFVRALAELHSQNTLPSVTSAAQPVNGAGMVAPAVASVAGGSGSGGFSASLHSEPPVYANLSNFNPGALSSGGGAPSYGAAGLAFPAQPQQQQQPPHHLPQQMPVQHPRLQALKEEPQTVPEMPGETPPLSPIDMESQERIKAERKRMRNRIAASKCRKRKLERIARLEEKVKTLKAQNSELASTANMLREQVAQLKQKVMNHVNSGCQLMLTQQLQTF

Assay [1] deals with T1, SARM1-HA (human) (UniProt Q6SZW1).
T1 sequence: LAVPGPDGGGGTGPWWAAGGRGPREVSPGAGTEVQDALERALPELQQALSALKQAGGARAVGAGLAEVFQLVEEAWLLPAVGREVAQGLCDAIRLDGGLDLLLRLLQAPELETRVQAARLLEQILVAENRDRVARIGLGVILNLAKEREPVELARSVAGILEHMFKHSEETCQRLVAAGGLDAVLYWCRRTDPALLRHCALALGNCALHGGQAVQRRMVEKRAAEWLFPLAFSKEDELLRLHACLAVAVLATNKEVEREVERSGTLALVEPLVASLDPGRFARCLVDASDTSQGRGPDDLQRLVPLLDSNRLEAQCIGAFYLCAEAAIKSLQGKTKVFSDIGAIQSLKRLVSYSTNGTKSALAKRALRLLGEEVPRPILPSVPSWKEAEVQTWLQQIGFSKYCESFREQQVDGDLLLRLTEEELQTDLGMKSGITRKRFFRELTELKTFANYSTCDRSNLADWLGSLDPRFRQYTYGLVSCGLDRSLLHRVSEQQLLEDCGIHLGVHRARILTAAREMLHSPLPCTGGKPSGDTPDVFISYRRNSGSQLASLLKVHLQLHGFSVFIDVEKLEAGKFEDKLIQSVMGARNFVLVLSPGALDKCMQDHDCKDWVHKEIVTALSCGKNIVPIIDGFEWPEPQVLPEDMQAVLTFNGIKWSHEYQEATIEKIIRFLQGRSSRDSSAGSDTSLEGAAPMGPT
As to the kind of experiment: co-IP.

The target in assay [2] is T2, Endogenous SARM1 (mouse dorsal root ganglia) (mouse (endogenous in DRG)) (UniProt Q6PDS3).
T2 sequence: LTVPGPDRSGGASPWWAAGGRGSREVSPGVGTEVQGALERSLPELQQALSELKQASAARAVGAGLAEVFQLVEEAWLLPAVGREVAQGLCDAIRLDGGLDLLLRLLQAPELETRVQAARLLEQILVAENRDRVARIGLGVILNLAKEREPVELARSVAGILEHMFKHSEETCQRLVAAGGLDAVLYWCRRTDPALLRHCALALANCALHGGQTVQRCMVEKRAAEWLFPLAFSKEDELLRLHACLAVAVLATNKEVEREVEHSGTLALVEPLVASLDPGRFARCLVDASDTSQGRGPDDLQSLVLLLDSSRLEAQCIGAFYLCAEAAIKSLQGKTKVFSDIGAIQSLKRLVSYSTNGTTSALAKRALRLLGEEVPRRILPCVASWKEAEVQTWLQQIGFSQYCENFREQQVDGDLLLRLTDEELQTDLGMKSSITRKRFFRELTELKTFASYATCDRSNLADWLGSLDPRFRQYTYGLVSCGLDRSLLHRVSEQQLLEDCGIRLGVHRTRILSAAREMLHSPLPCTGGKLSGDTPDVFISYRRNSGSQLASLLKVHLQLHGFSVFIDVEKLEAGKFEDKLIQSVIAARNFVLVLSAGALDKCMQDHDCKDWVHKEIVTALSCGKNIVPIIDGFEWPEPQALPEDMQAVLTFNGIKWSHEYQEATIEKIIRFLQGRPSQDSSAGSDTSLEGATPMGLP
As to the kind of experiment: co-IP.

Assay [3] concerns the target T3, SARM1 ARM-SAM-GFP (residues 28-559) (human) (UniProt Q6SZW1).
T3 sequence: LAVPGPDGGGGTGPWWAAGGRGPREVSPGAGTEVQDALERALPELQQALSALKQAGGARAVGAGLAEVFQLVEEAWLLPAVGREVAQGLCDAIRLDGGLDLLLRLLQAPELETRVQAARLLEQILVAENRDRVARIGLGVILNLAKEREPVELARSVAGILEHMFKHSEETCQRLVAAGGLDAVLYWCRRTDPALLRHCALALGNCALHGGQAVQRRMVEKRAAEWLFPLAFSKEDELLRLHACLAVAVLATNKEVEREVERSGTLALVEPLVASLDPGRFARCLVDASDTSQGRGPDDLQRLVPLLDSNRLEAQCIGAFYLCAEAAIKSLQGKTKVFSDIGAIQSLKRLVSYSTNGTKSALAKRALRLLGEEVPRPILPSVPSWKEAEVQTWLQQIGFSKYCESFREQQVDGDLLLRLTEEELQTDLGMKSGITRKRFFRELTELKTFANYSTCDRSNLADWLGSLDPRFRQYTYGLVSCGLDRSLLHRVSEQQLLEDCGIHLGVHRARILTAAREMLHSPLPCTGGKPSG
Kind of assay: co-IP.

For assay [4], the target named is T4, SARM1 ARM-GFP (residues 28-408) (human) (UniProt Q6SZW1).
T4 sequence: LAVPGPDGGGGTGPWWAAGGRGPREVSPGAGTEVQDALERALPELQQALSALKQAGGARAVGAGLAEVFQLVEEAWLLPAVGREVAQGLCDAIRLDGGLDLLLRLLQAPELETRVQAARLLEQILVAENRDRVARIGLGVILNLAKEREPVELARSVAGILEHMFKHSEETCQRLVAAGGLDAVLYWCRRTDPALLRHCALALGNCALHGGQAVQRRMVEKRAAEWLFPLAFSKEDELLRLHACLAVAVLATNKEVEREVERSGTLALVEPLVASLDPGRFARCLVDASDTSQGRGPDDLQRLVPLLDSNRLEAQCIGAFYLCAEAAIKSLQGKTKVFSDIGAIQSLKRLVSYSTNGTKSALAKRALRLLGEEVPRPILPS
As to the kind of experiment: co-IP.

For assay [5], the target named is T5, SARM1 SAM-TIR-GFP (residues 408-724) (human) (UniProt Q6SZW1).
T5 sequence: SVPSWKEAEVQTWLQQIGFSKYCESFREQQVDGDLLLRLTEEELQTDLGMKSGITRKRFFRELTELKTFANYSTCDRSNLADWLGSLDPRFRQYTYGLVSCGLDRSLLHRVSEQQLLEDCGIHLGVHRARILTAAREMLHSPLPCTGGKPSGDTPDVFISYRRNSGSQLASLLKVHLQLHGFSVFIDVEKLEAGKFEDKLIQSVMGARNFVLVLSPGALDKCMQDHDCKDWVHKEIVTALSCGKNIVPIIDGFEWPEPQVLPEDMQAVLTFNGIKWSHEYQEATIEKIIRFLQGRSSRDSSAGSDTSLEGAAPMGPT
As to the kind of experiment: co-IP.

The target in assay [6] is T6, SARM1-HaloTag-C58 (human) (UniProt Q6SZW1).
T6 sequence: T1 sequence
Kind of assay: split reporter.

For “Endogenous PKM1 (293T cells) (from UniProt P14618-2 1-531) (enzyme)”, the binding result in assay [1] is “binds”. Still for that read-out and setting: the result for “Endogenous PKM1 (HT22 cells) (from UniProt P52480-2 1-531) (enzyme)” reads “binds”. For the substance “Endogenous PKM1 (mouse dorsal root ganglia) (from UniProt P52480-2 1-531) (enzyme)”, in assay [2], the binding entry is reported as “binds”. For “FLAG-PKM1, full length (residues 1-531) (from UniProt P14618-2 1-531) (enzyme)”, the binding result was “no binding” in assay [3], “no binding” in assay [4], “binds” in assay [5] and “binds” in assay [1]. As to “FLAG-PKM2, full length (residues 1-531) (from UniProt P14618-1 1-531) (enzyme)”, the binding entry in assay [1] is on record as “binds”. Turning to “HaloTag-N58-PKM1-FLAG (from UniProt P14618-2 1-531) (enzyme)”, the binding result in assay [6] was “binds”. On the same count and under the same terms, next, “HaloTag-N58-c-Jun (from UniProt P05412 1-331)”: “no binding”.

Values taken from article doi:10.1101/2025.05.28.656718.
